Reference: PMC12785316
No constants are given. Whether binding was seen depends on the method and setting. In cells and extracts the contact can be indirect. A yes stands for co-enrichment or nearness to the bait. Other partners may have been found. Sequences can lack the tags named with a protein.

B1: PoGal83 (beta subunit of the Snf1 kinase complex), endogenous (protein, UniProt S8AWH1 1-447)
chain: MGNNPSKGPSGDGPDGHVHHGSAERKVARRTSLNAMRHQKATAADPSATRETAAGHPANYQGSPSHRRHSRNPPHSPGRSMSKPSGPDGRLQDYAQGRKSLPEDQSNPMQVPSARQGAGRDPVAPSGPPLSSYYSASQHLQRPPRMPLPIGDATTTPGSPISGPEDSHIQSMPADQLLKEQLEKGVSNLSSVTLDGEEIVDELPSYASSGVGKAVPTYIEWSGPGQKVYVTGTFVNWEKKFKLHRGDGENATMSTTLNLRPGTHHLKFIVDGEMRASDTLPTAVDFTNHLVNYIEISADDRQDSIPSGIQASQTVSDNVNNDETTDEPQNKEPEEEVPPGNFGRAIPQFLADLDKEEDSTAYIQAANVISDTPTPPSLPLFLGKSILNSNTPTKDDSSVLNYPNHTVLNHLATSSIKNGVLATSVTTRYKRKYVTSILYKPTGDIAE
B2: PDE_02615 (uncharacterized protein), endogenous (protein, UniProt S7ZG90 1-128)
chain: MGVFLFGKPQRATPLGNRGLAEMLRFLGMVRRPEIAREGHHYRVIIICSVIPRAWKTGGWLRERKRRDARCNGGAQRKSGGVSSAQLAPDRSKSQRFKFAERMRFHLGSTGRNAGQAYWAKQIQNDGE
B3: PoSnf4 (gamma subunit of the Snf1 kinase complex), endogenous (protein, UniProt S7ZPW3 1-357)
chain: MTKAEDTRPHLAGPLNSIGHAPFVQPSSYLRPPMSSQSERPIDVEERQGLRAIRNFLKVRTSYDVLPLSFRLIIFDTGLSVKESLNILIQNGIVSAPLWDSKASKFAGLLTTSDYINVIQYYFQNPAALDQIDQFRLDSLREVEKALGVAPPETISIDPERPLYEACRRMLESRARRIPLVTNDSQTDRSHVLSVITQYRILKFVAVNVGDTQKLRRPLGELLLGTYNNIATASMDTPVIDVIHILVERSISSVPILNSEGVVYNVFEAVDVIALIRGGVYDDLSLTVGEVLKKRSPEFPGIYTCSLNDGLDTIFDTIRKSRVHRLVVVDEHFKLKGVLTLSDILHYILLEGETDEV

Target: T1, PoSnf1 (Penicillium oxalicum Snf1 kinase, catalytic alpha subunit of the Snf1 kinase complex) with C-terminal HA-FLAG tag (Penicillium oxalicum) (UniProt S7ZEF0)
T1 sequence: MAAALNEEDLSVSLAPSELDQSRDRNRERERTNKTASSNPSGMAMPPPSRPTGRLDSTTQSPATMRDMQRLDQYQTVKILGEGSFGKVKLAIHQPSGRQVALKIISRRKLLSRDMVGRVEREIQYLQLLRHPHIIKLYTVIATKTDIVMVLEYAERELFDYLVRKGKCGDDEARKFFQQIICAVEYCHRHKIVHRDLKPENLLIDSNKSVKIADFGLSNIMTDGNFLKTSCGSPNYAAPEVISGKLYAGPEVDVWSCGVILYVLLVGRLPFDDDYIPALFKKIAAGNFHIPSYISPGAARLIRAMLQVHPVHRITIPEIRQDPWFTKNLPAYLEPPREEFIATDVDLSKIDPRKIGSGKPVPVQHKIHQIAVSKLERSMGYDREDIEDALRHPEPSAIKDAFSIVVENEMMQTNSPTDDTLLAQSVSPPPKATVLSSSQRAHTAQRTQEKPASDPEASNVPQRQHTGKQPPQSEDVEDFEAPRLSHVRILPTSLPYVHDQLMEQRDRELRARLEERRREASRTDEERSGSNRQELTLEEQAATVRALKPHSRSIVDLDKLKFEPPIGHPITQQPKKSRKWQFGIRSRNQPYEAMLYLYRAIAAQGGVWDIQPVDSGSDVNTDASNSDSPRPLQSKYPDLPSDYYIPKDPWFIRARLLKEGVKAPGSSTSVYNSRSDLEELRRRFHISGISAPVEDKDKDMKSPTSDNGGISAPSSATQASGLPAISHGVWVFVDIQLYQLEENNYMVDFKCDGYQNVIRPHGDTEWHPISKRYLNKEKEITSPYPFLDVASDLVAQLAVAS
Assay: affinity purification with mass spectrometry; tandem affinity purification from mycelial lysate of the Snf1-TAP strain grown in VMMG: ANTI-FLAG M2 resin overnight at 4 °C, elution with 3×FLAG peptide, then ANTI-HA resin, elution with 8 M urea; LC-MS/MS; untagged WT as control, two biological replicates

Binder	binding
B1	binds
B2	binds
B3	binds
